B1: il2ra_site1_1z92_sap_10_mot_22370d59370c406a0c205a431f537cfa_0001_000000027_0001_1_14_H_._HHH_b2_03329_0001_0000400034_0000001_0_0001 (protein)
chain: DDEEAEELLREILKERGSEEVLEKDLRRAERLFGDPRHALLALIMVAISFFGDPRLEEARELVKK
B2: il2ra_site1_3nfp_normal_mot_0eddeacbb14b769e73e254714f31e2f9_0001_af2_000000052_0001_37_51_H_._HHH_b1_00975_af2_0002_0000100004_0000001_0 (protein)
chain: SSSSSDEEELRERVEELLEEAKHVSEEEASRLIEEAYRLVQENGNQELADLIYRVMREMISSSSS
B3: il2ra_site2_3nfp_sap_11_mot_HHH_b2_02437_000000052_0001_42_56_H_._HHH_b1_03056_0001_0000400016_0000001_1_0001 (protein)
chain: SSSSDFEKLERMVEVAEHVAEAEGDEEVLERLRELLERAQEEGDSRLLLEAFALIRELILNSSSS
B4: il2ra_site2_3nfp_normal_mot_HHH_b1_08498_000000146_0001_21_37_H_._HHH_b2_03533_af2_0001_0000600018_0000001_0_af2pred_0001_af2pred (protein)
chain: SSSSSSSEEAIEAARWLAEILGDEEVLEQIEELLERYRKEGDERYEEEALRLLQELYESSSSSSS
B5: il2ra_site2_2erj_sap_30_mot_HHH_b2_01204_af2_000000051_0001_19_34_H_._HHH_b2_02783_0001_0000800038_0000001_1_0001_af2pred_0001_1_af2pred_swapped (protein)
chain: SSSSTEEEIEELIERIEELIKRGDREEAEELLLEALQLALKIDNEELFKRLEELREEVHGSSSSS
B6: il2ra_site2_2erj_sap_13_mot_a3b61943b7af24100a309c62926c5c00_0001_af2_000000082_0001_17_32_H_._HHH_b2_00092_0001_0000100002_0000001_0_0001 (protein)
chain: SSSSDEAEERIERLLEEAEELLERGDPAQAYEVLAEAARLVMELGDEELARLINRLMQSLMSSSS
B7: il2ra_site1_1z92_normal_mot_684917106388d69075f371d1b5c11ecb_0001_000000049_0001_53_65_H_._HHH_b1_04752_af2_0001_0000300033_0000001_0_af2pred_0001_af2pred_1 (protein)
chain: SSSSSDEEELRRFVEELVEEFGLSESAERWLRELVEEALKQGVDEHAIERDLENAARALSSSSSS
B8: il2ra_site1_3nfp_sap_11_mot_HHH_b2_00392_000000030_0001_1_16_H_._HEEHE_2134_0001_0000300048_0000001_0_0001 (protein)
chain: SHEEFVERAQKLVPPELQELLERAVKLAHERQDPELARLLIKAVALIQQGDPEKAEEVLEELERR
B9: il2ra_site2_3nfp_normal_mot_HHH_b2_00746_000000285_0001_20_36_H_._HHH_b1_03508_0001_0000200007_0000001_0 (protein)
chain: SSSSDEEELERLLREIEEAVERGDEELFRKLAQELTNLIYELGDHEAFARLNELIERFIRGSSSS
B10: il2ra_site2_3nfp_sap_10_mot_HHH_b2_06904_af2_000000235_0001_1_14_H_._1d6b5438aa0d917bea2962dcb63062e6_0001_1_af2_0001_0000300046_0000001_0_0001 (protein)
chain: SSSSNMRELILRAAKEFAEEANDPEVLREIEELEEEYRREGDPEYVRRAFELAQELAEKQSSSSS
B11: il2ra_site2_3nfp_sap_19_mot_HHH_b1_04031_af2_000000136_0001_1_21_H_._HHH_b1_03651_0001_0000100008_0000001_0_0001 (protein)
chain: SSSSSKSEEYLRLAIELAKEAEEQGDPEAAREHLEIALLAAELLNDEEIREEVERLLEEVSSSSS
B12: il2ra_site2_3nfp_sap_13_mot_HHH_b2_00236_af2_000000197_0001_23_39_H_._HHH_b1_04954_0001_0000300022_0000001_0_0001 (protein)
chain: SSSSSSSEEEVEKALQDARHAEDPEHARLALRLALAHALVFGDEELRKEIEELLEKLNSSSSSSS
B13: il2ra_site1_3nfp_normal_mot_cdc2c7e6ec3782e52408388447766025_0001_af2_000000293_0001_19_33_H_._2f69edf39d0b4cbfc537af338e4f3bc0_0001_af2_0001_0000200013_0000001 … (protein)
chain: PAVEFFFRAAKKSGISPEKIAKKLLEDAERALGDPEKAKELLKEFLEKLLGDPEEAEELLEEAEK
B14: il2ra_site2_3nfp_sap_22_mot_HHH_b1_02297_000000279_0001_41_58_H_._HHH_b1_00061_0001_0000500028_0000001_0_0001 (protein)
chain: SSSDESEEIFEEARKELERLLEEGDRKEASELTWEALRLLQELGDWRLVAKLYEILVRAYRSSSS
B15: il2ra_site2_3nfp_normal_mot_HHH_b1_00660_af2_000000090_0001_40_57_H_._HHH_b2_02332_0001_0000400063_0000001_0_af2pred_0001_1_af2pred_swapped (protein)
chain: SSSSSSEEVEELLKEAQRLLEEGDPEEARRVLHRAATIAAELGDHELFAELLNLLEKIESSSSSS
B16: il2ra_site1_1z92_normal_mot_1581cc1c700002558836ca695aafbf97_0001_1_af2_000000099_0001_17_32_H_._HHH_b2_05050_0001_0000200016_0000001_0 (protein)
chain: SSSSDEEVERLVEELVREFNLSERQERSLRIAARAAEEFGADPRVVERDLERFVEFLKRKGSSSS
B17: il2ra_site2_3nfp_normal_mot_HHH_b2_03978_000000149_0001_1_20_H_._89d51094ace004f14de90db6817c454c_0001_0001_0000500017_0000001_0 (protein)
chain: SELLRLAAEAYRRGDEELFALVSEAVHALEQGVPPEEIEELLEERAKAAGIPPEVLELVEEAVRT
B18: il2ra_site2_2erj_sap_24_mot_a018c15928f351c43b00908d5a7ba3e0_0001_000000190_0001_17_32_H_._64acf9c47b58a7ae4252630f76d6e6b2_0001_1_0001_0000300012_0000001_0_000 … (protein)
chain: SSSSDLEEEAERLVEELVREFGADERDELFLRSLAKKLARAGLSPEEIERALRESIEATRSSSSS

The other results are listed elsewhere or left out.

For the test, the target named is il2ra, P01589. Description: yeast display titration.
On to B1, for which the “apparent Kd” value is “inactive: no binding seen”. For the molecule B2, the “apparent Kd” value is “inactive: no binding seen”. The same measure for B3: “inactive: no binding seen”.

On to B4, for which the “apparent Kd” value was “inactive: no binding seen”. For B5, the “apparent Kd” value was “inactive: no binding seen”.

Take B6: the “apparent Kd” value was “inactive: no binding seen”. Take B7: the “apparent Kd” value is “inactive: no binding seen”. The same measure for B8: “inactive: no binding seen”; for B9: “inactive: no binding seen”; for B10: “inactive: no binding seen”.

For the molecule B11, the “apparent Kd” value was “inactive: no binding seen”.

In the case of B12, the “apparent Kd” value was “inactive: no binding seen”. The same measure for B13: “inactive: no binding seen”; for B14: “inactive: no binding seen”. The same measure for B15: “inactive: no binding seen”; for B16: “inactive: no binding seen”; for B17: “inactive: no binding seen”. Regarding B18, the “apparent Kd” value is “inactive: no binding seen”.

For the origin of these results see publication PMC10163288.
